The target in the test is T1, p55 (MAGUK protein) (mouse (endogenous in inner ear)) (UniProt P70290).
T1 sequence: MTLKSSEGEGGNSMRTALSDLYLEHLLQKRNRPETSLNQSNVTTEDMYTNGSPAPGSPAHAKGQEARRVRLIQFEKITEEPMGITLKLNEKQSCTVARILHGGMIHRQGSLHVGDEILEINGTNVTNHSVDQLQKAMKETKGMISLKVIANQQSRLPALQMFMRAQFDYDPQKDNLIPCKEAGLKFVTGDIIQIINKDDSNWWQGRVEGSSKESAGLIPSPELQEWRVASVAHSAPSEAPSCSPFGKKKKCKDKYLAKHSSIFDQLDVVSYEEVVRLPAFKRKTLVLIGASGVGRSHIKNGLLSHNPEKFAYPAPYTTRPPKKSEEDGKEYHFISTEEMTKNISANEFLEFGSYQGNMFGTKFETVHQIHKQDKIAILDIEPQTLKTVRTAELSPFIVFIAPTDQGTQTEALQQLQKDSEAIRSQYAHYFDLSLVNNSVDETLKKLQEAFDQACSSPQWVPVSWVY
Kind of test: co-IP; immunoprecipitation from mouse inner ear lysate with anti-p55 antibody linked to agarose beads, normal goat IgG as negative control; western blot with anti-gelsolin antibody. (In general: A western blot detects proteins with antibodies after separation by electrophoresis.)

Amino acid sequences for entries named in this document (tags omitted). A change or cut given only in a name is not applied to a line headed by its entry.
UniProt P13020: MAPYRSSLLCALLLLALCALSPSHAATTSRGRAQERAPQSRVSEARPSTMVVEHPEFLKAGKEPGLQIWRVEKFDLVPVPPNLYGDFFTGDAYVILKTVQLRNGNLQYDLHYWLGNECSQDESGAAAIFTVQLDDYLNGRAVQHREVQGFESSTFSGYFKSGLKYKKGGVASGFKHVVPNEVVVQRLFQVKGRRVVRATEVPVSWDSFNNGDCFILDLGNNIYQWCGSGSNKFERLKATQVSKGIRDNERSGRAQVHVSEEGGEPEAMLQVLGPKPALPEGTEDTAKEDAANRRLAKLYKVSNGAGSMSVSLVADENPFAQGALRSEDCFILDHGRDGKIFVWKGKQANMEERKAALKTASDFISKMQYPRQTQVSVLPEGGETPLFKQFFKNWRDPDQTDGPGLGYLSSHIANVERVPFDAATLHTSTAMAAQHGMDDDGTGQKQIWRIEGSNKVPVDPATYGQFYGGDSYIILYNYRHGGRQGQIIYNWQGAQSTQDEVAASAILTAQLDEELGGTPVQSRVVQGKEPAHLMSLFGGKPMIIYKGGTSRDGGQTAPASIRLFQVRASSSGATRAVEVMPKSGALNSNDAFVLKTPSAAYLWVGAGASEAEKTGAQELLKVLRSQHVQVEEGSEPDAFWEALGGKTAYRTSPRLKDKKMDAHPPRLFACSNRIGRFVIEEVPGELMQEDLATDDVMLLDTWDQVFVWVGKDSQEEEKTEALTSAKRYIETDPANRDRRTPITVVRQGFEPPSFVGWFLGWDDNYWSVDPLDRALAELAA

No constants are given. Whether binding was seen depends on the method and setting. In cells and extracts the contact can be indirect. Binding calls can cover weak binding; strength is not graded here.

Consider gelsolin (from UniProt P13020), for which the binding result is recorded as “binds”.

These data come from paper PMC2905391.
